Reference: article PMC12700909
Results are given in words; binding and its absence hold for the method and conditions named. Some results given as binding are weak or reduced against the parent protein; the word gives no strength.

By UniProt entry, the sequences of proteins in these tests, tags left out.
UniProt P07699: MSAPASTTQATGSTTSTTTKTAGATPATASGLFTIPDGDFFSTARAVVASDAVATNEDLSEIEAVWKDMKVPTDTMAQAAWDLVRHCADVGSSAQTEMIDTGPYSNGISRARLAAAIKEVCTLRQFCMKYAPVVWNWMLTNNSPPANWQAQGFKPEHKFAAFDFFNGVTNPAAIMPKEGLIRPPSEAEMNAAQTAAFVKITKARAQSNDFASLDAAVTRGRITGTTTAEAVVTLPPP

What was measured:
[1] = target: potato virus X (PVX) coat protein (CP), native (potato virus X) (UniProt P07699); assay: SEC; VLPs assembled in vitro from purified CP on EGFP-SL1 mRNA (50:1 CP:RNA by mass) or circRNA (40:1), purified through a sucrose cushion; Superose 6 Increase, 10 mM Tris-HCl pH 8.0, 50 mM NaCl, 0.1 mg/mL, compared with free CP and native PVX; the assembly is templated on RNA; both purified
[2] = target: potato virus X (PVX) coat protein (CP), native (potato virus X) (UniProt P07699); assay: Ni-NTA-Nanogold TEM; mixed VLPs of rCP-His and native CP on gRNA deposited on grids, 10 nm Ni-NTA-Nanogold added for 30 min at room temperature, washed with 8 mM imidazole, negative stain; not quantitative by the paper's words; both purified
[3] = target: potato virus X (PVX) coat protein (CP), native (potato virus X) (UniProt P07699); assay: co-sedimentation; rCP-His and native CP mixed at ratios 7:3 to 1:9, assembled on PVX gRNA (CP:RNA 50:1 by mass); VLPs purified through a 30% sucrose cushion at 180,000 g; CPs separated by SDS-PAGE and the His-tag detected with Ni-NTA-Nanogold (Goldiblot His-tag Western blot); the assembly is templated on RNA; both purified

In the case of “potato virus X (PVX) coat protein (CP), native (from UniProt P07699 1-237)”, the binding [1] is reported as “binds”.

With “recombinant PVX coat protein with N-terminal 9xHis-tag (rCP-His) (from UniProt P07699 1-237)” the binding [2] was “binds” and the binding [3] was “binds”.
